Assay results taken from paper PMC11018607, “A widely conserved protein Rof inhibits transcription termination factor Rho and promotes Salmonella virulence program” (Nature Communications, 2024).
Results are given in words; binding and its absence hold for the method and conditions named.

Biological target: Rof (Rho-off, YaeO), E. coli (E. coli) (UniProt P0AFW8)
Assay: SEC; gel filtration of purified Rof alone and of purified Rho alone; both purified

B1: Rof (Rho-off, YaeO), E. coli (natural protein)
chain: MNDTYQPINCDDYDNLELACQHHLMLTLELKDGEKLQAKASDLVSRKNVEYLVVEAAGETRELRLDKITSFSHPEIGTVVVSES
notes: Protein Rof (YaeO), E. coli, expressed from pET22b-rof; In the cryo-EM map density was absent for Rof residues 1-5; No removal of the tag is described; also called EcRof; source: E. coli BL21(DE3) transformed with pET22b-rof, purified (Ni-NTA, Superdex 200)
binding: no binding
